The list shows a part of the results.
Compound: Cc1cc(ccc1-c1ccccc1)C(=O)N1CCCN(CC1)C(=O)CCl [compound 10]
Assay: probe-labelled cysteine peptide fold change vs DMSO (competition) (log2 fold change); higher = less target engagement (more negative = stronger competition)
Conditions: THP-1, incubation time: 4 h
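Note: competitive profiling in live THP-1 cells: cysteine peptides tagged with an iodoacetamide desthiobiotin (IA-DTB) probe, intensity after compound treatment relative to DMSO-treated cells.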

Sequences of proteins named here, by UniProt entry; tags and fusion partners are left off. A change or cut given only in a name is not applied to a line headed by its entry.
UniProt Q14C86: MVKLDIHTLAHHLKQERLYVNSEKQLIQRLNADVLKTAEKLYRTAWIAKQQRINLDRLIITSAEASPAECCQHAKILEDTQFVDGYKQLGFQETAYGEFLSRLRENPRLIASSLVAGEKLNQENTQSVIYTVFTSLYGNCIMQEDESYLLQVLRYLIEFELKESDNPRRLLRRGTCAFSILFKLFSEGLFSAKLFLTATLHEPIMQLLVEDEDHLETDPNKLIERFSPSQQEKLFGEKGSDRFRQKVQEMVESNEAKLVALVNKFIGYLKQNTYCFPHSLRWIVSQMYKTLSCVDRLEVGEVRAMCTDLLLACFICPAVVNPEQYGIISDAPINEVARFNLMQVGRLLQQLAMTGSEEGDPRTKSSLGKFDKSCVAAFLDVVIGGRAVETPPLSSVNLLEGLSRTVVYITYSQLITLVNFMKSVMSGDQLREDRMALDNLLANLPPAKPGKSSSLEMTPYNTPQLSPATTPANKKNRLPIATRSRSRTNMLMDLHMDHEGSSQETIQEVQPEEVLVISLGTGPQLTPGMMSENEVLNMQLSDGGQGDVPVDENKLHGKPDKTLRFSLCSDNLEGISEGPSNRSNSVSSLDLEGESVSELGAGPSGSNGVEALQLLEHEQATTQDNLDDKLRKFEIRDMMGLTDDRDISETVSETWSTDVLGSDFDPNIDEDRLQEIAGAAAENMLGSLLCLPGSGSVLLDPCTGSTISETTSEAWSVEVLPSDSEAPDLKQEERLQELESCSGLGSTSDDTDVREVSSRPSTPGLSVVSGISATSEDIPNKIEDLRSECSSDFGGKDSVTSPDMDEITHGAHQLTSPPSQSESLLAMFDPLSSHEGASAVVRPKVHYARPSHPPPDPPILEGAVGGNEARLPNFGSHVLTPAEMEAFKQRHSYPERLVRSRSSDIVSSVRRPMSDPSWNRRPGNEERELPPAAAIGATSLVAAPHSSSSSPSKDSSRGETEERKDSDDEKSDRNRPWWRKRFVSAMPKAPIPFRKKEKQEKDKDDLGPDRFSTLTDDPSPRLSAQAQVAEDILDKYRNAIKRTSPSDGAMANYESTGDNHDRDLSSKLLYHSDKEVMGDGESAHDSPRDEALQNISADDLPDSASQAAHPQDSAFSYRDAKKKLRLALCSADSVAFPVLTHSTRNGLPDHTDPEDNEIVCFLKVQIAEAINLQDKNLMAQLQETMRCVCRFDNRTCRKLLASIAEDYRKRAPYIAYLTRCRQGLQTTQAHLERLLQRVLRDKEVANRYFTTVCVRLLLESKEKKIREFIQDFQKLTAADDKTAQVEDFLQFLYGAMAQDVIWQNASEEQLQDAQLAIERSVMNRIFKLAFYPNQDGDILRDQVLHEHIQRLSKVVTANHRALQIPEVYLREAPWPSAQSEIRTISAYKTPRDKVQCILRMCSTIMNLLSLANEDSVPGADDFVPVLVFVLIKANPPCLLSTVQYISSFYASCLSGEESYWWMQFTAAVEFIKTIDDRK
UniProt O14908: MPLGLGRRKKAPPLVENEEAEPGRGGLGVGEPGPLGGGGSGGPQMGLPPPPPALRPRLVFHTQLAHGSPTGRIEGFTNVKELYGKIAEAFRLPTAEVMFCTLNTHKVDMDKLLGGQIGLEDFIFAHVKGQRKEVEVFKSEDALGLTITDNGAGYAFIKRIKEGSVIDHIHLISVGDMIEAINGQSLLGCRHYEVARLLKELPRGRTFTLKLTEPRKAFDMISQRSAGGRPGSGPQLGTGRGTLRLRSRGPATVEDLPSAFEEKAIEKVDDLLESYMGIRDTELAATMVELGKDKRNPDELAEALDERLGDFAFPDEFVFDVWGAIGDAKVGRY
UniProt O75879: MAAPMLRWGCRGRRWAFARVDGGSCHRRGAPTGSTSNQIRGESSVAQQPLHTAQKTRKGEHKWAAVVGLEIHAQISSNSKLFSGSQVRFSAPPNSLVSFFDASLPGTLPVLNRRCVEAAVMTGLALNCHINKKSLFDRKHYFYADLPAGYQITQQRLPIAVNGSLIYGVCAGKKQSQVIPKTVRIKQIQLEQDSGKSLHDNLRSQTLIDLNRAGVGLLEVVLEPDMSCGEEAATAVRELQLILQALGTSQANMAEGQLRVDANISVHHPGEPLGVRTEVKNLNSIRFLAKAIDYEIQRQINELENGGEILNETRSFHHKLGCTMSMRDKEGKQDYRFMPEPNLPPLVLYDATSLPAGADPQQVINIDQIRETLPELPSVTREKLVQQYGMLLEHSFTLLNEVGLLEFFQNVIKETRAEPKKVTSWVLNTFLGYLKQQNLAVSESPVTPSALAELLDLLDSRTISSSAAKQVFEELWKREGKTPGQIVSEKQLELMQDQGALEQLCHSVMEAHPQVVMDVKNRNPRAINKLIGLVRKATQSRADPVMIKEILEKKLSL
UniProt P50395: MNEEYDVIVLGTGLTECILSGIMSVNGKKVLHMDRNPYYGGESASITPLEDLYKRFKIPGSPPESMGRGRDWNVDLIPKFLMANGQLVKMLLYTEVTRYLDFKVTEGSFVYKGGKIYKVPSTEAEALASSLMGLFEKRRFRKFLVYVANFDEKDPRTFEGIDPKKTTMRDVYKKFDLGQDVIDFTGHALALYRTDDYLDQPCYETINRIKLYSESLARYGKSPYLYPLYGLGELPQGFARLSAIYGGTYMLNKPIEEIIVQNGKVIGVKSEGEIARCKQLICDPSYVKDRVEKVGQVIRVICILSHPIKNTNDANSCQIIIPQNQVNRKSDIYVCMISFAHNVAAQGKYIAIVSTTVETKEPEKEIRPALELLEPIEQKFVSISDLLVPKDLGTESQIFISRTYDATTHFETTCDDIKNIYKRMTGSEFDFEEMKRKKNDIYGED
UniProt Q9NY12: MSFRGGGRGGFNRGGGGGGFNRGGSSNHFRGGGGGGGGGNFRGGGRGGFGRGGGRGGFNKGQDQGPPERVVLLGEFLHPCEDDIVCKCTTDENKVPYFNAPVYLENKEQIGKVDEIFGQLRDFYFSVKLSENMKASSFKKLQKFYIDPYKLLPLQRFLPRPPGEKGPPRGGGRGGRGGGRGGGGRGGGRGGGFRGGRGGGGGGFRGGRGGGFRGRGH
UniProt Q9H3C7, whole entry, looked up: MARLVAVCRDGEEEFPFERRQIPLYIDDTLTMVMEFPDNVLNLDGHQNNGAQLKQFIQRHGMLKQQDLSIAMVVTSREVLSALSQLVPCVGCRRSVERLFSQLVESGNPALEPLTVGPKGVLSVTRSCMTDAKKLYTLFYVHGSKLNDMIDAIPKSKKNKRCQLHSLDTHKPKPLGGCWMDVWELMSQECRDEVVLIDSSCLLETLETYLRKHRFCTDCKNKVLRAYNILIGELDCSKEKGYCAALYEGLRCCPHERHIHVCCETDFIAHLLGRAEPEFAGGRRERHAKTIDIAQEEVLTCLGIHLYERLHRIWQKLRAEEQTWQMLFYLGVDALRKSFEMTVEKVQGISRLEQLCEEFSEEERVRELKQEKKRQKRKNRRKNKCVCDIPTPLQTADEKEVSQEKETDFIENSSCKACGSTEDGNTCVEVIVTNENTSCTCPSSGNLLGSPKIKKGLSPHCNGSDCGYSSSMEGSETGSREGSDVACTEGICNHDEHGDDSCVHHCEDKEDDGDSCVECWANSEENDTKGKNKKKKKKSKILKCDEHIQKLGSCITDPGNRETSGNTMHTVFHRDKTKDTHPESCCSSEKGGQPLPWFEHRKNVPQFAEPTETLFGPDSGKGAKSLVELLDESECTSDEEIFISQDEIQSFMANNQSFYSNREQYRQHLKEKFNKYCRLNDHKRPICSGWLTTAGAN
UniProt Q10471: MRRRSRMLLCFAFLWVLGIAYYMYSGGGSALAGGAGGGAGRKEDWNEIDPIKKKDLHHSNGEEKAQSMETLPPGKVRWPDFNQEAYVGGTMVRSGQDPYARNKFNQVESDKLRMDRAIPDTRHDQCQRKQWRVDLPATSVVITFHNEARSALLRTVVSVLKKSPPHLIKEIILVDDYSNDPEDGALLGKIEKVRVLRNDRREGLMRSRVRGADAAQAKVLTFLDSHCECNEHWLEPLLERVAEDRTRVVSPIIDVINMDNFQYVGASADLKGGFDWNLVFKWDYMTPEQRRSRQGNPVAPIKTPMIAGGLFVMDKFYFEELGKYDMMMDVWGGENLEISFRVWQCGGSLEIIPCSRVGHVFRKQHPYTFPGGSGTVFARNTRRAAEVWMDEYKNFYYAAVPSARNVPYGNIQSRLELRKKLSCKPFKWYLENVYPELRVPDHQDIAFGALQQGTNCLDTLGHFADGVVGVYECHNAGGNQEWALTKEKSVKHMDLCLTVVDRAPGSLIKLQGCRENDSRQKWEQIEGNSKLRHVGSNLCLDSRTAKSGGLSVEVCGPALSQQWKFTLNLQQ
UniProt P41250: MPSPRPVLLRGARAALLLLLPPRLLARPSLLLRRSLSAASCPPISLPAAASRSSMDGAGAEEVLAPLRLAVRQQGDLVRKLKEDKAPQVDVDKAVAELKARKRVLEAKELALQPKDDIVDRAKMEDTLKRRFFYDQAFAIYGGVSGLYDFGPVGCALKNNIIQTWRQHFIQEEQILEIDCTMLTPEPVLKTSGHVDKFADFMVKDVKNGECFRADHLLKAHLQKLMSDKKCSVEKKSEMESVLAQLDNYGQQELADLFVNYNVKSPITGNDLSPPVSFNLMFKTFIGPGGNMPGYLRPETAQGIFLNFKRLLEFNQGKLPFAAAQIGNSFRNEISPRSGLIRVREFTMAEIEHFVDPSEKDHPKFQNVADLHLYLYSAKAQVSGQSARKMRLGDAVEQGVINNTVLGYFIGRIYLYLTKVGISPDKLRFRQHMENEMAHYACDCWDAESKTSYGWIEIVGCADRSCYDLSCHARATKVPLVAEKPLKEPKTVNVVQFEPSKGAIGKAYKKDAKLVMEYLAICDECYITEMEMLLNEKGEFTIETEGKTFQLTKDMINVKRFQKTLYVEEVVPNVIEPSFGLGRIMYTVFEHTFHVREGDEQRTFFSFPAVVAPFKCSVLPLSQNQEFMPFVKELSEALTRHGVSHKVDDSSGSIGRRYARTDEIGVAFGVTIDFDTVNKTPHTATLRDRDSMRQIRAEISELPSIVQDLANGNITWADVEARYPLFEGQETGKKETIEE
UniProt P32189: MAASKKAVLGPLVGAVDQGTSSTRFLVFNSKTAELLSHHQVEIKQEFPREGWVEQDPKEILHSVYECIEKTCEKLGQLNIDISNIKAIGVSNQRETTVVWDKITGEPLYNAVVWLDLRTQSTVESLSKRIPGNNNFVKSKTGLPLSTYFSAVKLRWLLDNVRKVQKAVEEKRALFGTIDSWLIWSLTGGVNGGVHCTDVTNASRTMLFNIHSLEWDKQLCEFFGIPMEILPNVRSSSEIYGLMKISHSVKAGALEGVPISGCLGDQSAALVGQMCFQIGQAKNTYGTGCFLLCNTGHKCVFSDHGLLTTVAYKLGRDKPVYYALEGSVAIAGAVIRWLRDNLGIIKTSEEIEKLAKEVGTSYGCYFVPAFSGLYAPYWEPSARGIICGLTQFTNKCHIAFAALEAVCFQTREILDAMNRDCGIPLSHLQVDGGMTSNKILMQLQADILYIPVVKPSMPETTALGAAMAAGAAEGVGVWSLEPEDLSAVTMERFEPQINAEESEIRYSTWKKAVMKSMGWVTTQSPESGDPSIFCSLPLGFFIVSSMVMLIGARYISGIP
UniProt Q8N2G8: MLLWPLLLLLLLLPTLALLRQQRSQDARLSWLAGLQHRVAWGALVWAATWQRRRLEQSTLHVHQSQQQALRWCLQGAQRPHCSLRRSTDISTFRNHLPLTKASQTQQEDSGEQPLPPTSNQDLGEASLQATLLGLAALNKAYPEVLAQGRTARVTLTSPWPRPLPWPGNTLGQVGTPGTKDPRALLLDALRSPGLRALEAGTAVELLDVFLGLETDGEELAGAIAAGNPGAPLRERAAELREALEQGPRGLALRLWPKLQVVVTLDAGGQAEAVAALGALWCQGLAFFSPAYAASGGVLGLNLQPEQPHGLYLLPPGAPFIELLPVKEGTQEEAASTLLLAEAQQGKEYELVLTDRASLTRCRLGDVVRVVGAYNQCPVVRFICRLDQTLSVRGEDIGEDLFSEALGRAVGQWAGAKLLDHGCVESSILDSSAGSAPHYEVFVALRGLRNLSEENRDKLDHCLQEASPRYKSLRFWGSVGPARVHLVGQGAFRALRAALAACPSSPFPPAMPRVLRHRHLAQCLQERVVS
UniProt Q9UG22: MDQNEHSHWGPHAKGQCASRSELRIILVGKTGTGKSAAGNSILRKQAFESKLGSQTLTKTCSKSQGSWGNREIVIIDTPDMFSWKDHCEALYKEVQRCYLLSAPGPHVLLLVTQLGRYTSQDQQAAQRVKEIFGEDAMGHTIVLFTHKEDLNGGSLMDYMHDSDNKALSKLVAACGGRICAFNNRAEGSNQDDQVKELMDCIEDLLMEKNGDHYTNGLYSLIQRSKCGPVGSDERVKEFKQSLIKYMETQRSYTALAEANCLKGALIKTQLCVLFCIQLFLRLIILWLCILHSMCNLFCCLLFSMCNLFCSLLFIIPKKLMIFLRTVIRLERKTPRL

Row | Target | probe-labelled cysteine peptide fold change (10 µM) | probe-labelled cysteine peptide fold change (50 µM)
1 | GAPVD1_Q14C86_1253_YFTTVCVR (UniProt Q14C86) | -0.00537 | 0.122
2 | GGA2_Q9UJY4_343_VFQNPAGCMK (UniProt Q9UJY4) | -0.124 | -0.564
3 | GALNT1_Q10472_482_TDDLCLDVSK (UniProt Q10472) | -0.0304 | 0.189
4 | GAN_Q9H2C0_415_IGCYAAMK (UniProt Q9H2C0) | -0.0133 | 0.0685
5 | GGCT_O75223_144_KIICMGAK (UniProt O75223) | -0.0382 | -0.262
6 | GIPC1_O14908_189_EGSVIDHIHLISVGDMIEAINGQSLLGCR (UniProt O14908) | 0.141 | 0.0323
7 | GDAP2_Q9NXN4_348_ALYQTGVDNCGR (UniProt Q9NXN4) | -0.138 | -0.0533
8 | GANAB_Q14697_423_WNYRDEADVLEVDQGFDDHNLPCDVIWLDIEHADGKR (UniProt Q14697) | 0.00503 | 0.0629
9 | GGPS1_O95749_247_YCVHYLEDVGSFEYTR (UniProt O95749) | -0.0424 | 0.118
10 | GEMIN5_Q8TEQ6_501_KTVYTLAWGPPVPPMSLGGEGDRPSLALYSCGGEGIVLQHNPWK (UniProt Q8TEQ6) | 0.0135 | -0.141
11 | GEMIN5_Q8TEQ6_441_EGCLAFGTDDGK (UniProt Q8TEQ6) | -0.159 | -0.222
12 | GAPVD1_Q14C86_1160_NGLPDHTDPEDNEIVCFLK (UniProt Q14C86) | -0.115 | -0.25
13 | GGA1_Q9UJY5_73_IQSPQEWEAIQALTVLETCMK (UniProt Q9UJY5) | 0.2 | 0.173
14 | GAPDHS_O14556_319_VPTPDVSVVDLTCR (UniProt O14556) | -0.281 | -0.216
15 | GANAB_Q14697_822_SSECMKDDPITLFVALSPQGTAQGELFLDDGHTFNYQTR (UniProt Q14697) | 0.0598 | 0.0773
16 | GATB_O75879_228_AGVGLLEVVLEPDMSCGEEAATAVR (UniProt O75879) | -0.0137 | -0.148
17 | GFI1_Q99684_398+401_HTGFKPFGCDLCGK (UniProt Q99684) | -0.0472 | 0.201
18 | GANAB_Q14697_41+47_TCEESSFCK (UniProt Q14697) | -0.0702 | -0.158
19 | GCLC_P48506_295_GYVSDIDCR (UniProt P48506) | 0.0581 | 0.0157
20 | GDI2_P50395_335_KSDIYVCMISFAHNVAAQGK (UniProt P50395) | 0.0466 | 0.149
21 | GCA_P28676_182_IFFDDYVACCVK (UniProt P28676) | 0.0552 | -0.105

Row | Target | probe-labelled cysteine peptide fold change (10 µM) | probe-labelled cysteine peptide fold change (50 µM)
22 | GAR1_Q9NY12_88_CTTDENK (UniProt Q9NY12) | -0.00656 | 0.0352
23 | GGNBP2_Q9H3C7_92_EVLSALSQLVPCVGCR (UniProt Q9H3C7) | 0.105 | 0.133
24 | GDE1_Q9NZC3_127_LCDLTFEQIR (UniProt Q9NZC3) | -0.123 | 0.0263
25 | GATD3B_A0A0B4J2D5_244_VVTTPAFMCETALHYIHDGIGAMVR | – | 0.0229
26 | GALNT2_Q10471_229_VLTFLDSHCECNEHWLEPLLER (UniProt Q10471) | 0.0448 | -0.0647
27 | GARS_P41250_466+471_SCYDLSCHAR (UniProt P41250) | 0.126 | -0.411
28 | GIMAP5_Q96F15_238_TGAGACQEDYR (UniProt Q96F15) | -0.145 | -0.239
29 | GATB_O75879_115_CVEAAVMTGLALNCHINKK (UniProt O75879) | 0.00108 | 0.00339
30 | GAS2L1_Q99501_276_CSSTAHRPPQPR (UniProt Q99501) | 0.164 | -0.148
31 | GALNT7_Q86SF2_197_SVNDLRQEECK (UniProt Q86SF2) | -0.0144 | 0.0986
32 | GK_P32189_299_CVFSDHGLLTTVAYK (UniProt P32189) | 0.168 | -0.0986
33 | GANAB_Q14697_423_WNYRDEADVLEVDQGFDDHNLPCDVIWLDIEHADGK (UniProt Q14697) | -0.0212 | 0.454
34 | GARS_P41250_442+444_FRQHMENEMAHYACDCWDAESK (UniProt P41250) | 0.0206 | -0.755
35 | GEMIN2_O14893_264_LLVDSKDDERVPALNLLICLVSR (UniProt O14893) | 0.201 | -0.54
36 | GHDC_Q8N2G8_73_WCLQGAQRPHCSLR (UniProt Q8N2G8) | -0.0806 | -0.19
37 | GAPVD1_Q14C86_70+71_LIITSAEASPAECCQHAK (UniProt Q14C86) | -0.395 | -0.988
38 | GEMIN5_Q8TEQ6_1421_NEPEVEAEQPLCSSQSQCK (UniProt Q8TEQ6) | 0.068 | -0.124
39 | GDAP2_Q9NXN4_148_TAAESSLYSCYR (UniProt Q9NXN4) | -0.0153 | 0.00868
40 | GARS_P41250_471_SCYDLSCHAR (UniProt P41250) | 0.113 | -0.286
41 | GGNBP2_Q9H3C7_301_TIDIAQEEVLTCLGIHLYER (UniProt Q9H3C7) | -0.0758 | 0.341
42 | GDPD1_Q8N9F7_75_IGTDMLELDCHITK (UniProt Q8N9F7) | -0.053 | -0.156

Row | Target | probe-labelled cysteine peptide fold change (10 µM) | probe-labelled cysteine peptide fold change (50 µM)
43 | GBF1_Q92538_1707_IDCFLPHLR (UniProt Q92538) | 0.104 | 0.244
44 | GFI1_Q99684_342+345_SSTLSTHLLIHSDTRPYPCQYCGK (UniProt Q99684) | 0.0509 | 0.071
45 | GIPC1_O14908_100_LPTAEVMFCTLNTHK (UniProt O14908) | 0.0302 | 0.263
46 | GANC_Q8TET4_758_TFAHWEGGCTVK (UniProt Q8TET4) | 0.138 | 0.108
47 | GALNT1_Q10472_212+214_GQVITFLDAHCECTVGWLEPLLAR (UniProt Q10472) | 0.199 | -0.475
48 | GIT2_Q14161_672_HDSYIPCSER (UniProt Q14161) | 0.109 | 0.144
49 | GANAB_Q14697_47_TCEESSFCK (UniProt Q14697) | 0.169 | 0.227
50 | GEMIN5_Q8TEQ6_1051_CYLGATCAYDAAK (UniProt Q8TEQ6) | 0.411 | 0.197
51 | GIT2_Q14161_11+14_SSEVCADCSGPDPSWASVNR (UniProt Q14161) | 0.152 | -0.129
52 | GAPVD1_Q14C86_293_TLSCVDRLEVGEVR (UniProt Q14C86) | 0.0447 | 0.492
53 | GIT2_Q14161_35_GTFLCDECCSVHR (UniProt Q14161) | 0.0947 | -0.152
54 | GAR1_Q9NY12_88_CTTDENKVPYFNAPVYLENK (UniProt Q9NY12) | -0.0888 | -0.814
55 | GIT2_Q14161_31+35_GTFLCDECCSVHR (UniProt Q14161) | -0.0726 | 0.00157
56 | GDAP1_Q8TB36_51_CEEHDVSLPLSEHNEPWFMR (UniProt Q8TB36) | 0.0603 | 0.173
57 | GALT_P07902_180+187_GAMMGCSNPHPHCQVWASSFLPDIAQR (UniProt P07902) | 0.00819 | -0.138
58 | GEMIN4_P57678_486_QVIHLILECYADLSLPGK (UniProt P57678) | 0.0972 | 0.0728
59 | GFPT1_Q06210_264_VDSTTCLFPVEEK (UniProt Q06210) | -0.0167 | 0.203
60 | GBP5_Q96PP8_233_CFIFDLPAHQK (UniProt Q96PP8) | -0.207 | -0.285
61 | GBF1_Q92538_1430_IFVEASLNGGCK (UniProt Q92538) | -0.194 | -0.371
62 | GBF1_Q92538_613_KETARPSCEIVDGTR (UniProt Q92538) | -0.298 | -0.378
63 | GCN1_Q92616_2558_CLQNPSSDIR (UniProt Q92616) | 0.0554 | 0.000447

Row | Target | probe-labelled cysteine peptide fold change (10 µM) | probe-labelled cysteine peptide fold change (50 µM)
64 | GINS1_Q14691_75_CTVAYLYDR (UniProt Q14691) | -0.237 | 0.21
65 | GALNT1_Q10472_459_VGIFNCHGMGGNQVFSYTANK (UniProt Q10472) | -0.119 | -0.0543
66 | GFER_P55789_165_ACFTQWLCHLHNEVNR (UniProt P55789) | 0.0703 | 0.073
67 | GEMIN5_Q8TEQ6_1477_SHFPGCLAQEMQQQAQELLQK (UniProt Q8TEQ6) | 0.019 | 0.0181
68 | GK_P32189_421_DCGIPLSHLQVDGGMTSNK (UniProt P32189) | 0.0407 | 0.243
69 | GAPVD1_Q14C86_1129_LALCSADSVAFPVLTHSTR (UniProt Q14C86) | -0.0678 | -0.0181
70 | GCC2_Q8IWJ2_92_AETEQQCLSLK (UniProt Q8IWJ2) | 0.312 | 0.569
71 | GIMAP2_Q9UG22_98_CYLLSAPGPHVLLLVTQLGR (UniProt Q9UG22) | -0.3 | 0.128
72 | GIT1_Q9Y2X7_222_LVECQYELTDR (UniProt Q9Y2X7) | 0.00532 | 0.102
73 | GHDC_Q8N2G8_462_LDHCLQEASPR (UniProt Q8N2G8) | 0.18 | 0.652
74 | GAPDH_P04406_247_VPTANVSVVDLTCR (UniProt P04406) | 0.127 | 0.0861
75 | GALNT2_Q10471_496_HMDLCLTVVDRAPGSLIK (UniProt Q10471) | 0.0216 | -0.225
76 | GIMAP2_Q9UG22_201_ELMDCIEDLLMEK (UniProt Q9UG22) | 0.356 | 0.119
77 | GK_P32189_67_EILHSVYECIEK (UniProt P32189) | 0.245 | 0.245
78 | GATD1_Q8NB37_216_HLVTGQNASSTVPAVQNLLFLCGSR (UniProt Q8NB37) | 0.175 | 0.169
79 | GANAB_Q14697_423_DEADVLEVDQGFDDHNLPCDVIWLDIEHADGKR (UniProt Q14697) | -0.0335 | 0.391
80 | GDI2_P50395_202_TDDYLDQPCYETINR (UniProt P50395) | 0.172 | 0.282
81 | GGCX_P38435_343_AAPQPSVSCVYK (UniProt P38435) | -0.0547 | -0.0533
82 | GBE1_Q04446_221_HFTCNVLPR (UniProt Q04446) | 0.103 | 0.146
83 | GCAT_O75600_106_FICGTQSIHK (UniProt O75600) | 0.153 | -0.126
84 | GALNT12_Q8IXK2_233_GDVLTFLDCHCECHEGWLEPLLQR (UniProt Q8IXK2) | 0.185 | -0.217

Reference: the supplement of paper PMC12067093, “Discovery and optimisation of a covalent ligand for TRIM25 and its application to targeted protein ubiquitination” (Chemical Science, 2025)
